# Test results from publication doi:10.1101/2022.09.20.508727.
# Amino acid sequences for entries named in this document (tags omitted). Residues count along the entry.
# UniProt P0A6Z3: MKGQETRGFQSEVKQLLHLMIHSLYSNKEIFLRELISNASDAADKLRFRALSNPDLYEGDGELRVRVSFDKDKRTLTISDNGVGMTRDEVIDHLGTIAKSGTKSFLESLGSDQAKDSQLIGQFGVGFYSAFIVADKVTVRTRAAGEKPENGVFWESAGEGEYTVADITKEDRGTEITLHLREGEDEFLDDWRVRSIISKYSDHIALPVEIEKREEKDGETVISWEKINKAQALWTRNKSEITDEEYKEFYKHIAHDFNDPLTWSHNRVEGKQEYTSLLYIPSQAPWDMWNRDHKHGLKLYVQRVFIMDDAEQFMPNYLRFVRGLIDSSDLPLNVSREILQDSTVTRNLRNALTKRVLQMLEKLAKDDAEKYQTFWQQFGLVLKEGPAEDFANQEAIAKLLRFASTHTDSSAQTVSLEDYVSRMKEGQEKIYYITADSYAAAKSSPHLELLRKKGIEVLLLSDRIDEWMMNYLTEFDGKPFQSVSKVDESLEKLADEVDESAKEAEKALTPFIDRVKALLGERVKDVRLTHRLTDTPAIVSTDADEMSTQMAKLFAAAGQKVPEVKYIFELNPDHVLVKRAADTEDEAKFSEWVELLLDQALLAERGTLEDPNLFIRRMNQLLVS
# UniProt P0ABB0: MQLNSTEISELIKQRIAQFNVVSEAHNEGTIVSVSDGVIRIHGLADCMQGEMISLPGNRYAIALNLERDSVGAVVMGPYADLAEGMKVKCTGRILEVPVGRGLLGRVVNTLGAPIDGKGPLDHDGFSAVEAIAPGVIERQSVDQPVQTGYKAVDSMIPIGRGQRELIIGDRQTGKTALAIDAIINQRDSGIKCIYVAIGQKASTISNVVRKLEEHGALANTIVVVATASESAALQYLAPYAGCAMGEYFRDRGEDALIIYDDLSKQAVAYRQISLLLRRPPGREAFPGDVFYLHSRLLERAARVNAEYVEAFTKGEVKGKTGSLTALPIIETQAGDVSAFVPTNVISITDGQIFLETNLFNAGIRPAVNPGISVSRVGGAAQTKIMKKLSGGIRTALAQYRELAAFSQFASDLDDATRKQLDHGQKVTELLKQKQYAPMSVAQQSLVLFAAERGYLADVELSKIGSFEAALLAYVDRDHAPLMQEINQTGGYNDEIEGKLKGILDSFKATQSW
# UniProt P0ACF0: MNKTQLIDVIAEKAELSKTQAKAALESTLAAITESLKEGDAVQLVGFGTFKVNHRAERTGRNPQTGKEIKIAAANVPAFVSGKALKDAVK
# UniProt P06959: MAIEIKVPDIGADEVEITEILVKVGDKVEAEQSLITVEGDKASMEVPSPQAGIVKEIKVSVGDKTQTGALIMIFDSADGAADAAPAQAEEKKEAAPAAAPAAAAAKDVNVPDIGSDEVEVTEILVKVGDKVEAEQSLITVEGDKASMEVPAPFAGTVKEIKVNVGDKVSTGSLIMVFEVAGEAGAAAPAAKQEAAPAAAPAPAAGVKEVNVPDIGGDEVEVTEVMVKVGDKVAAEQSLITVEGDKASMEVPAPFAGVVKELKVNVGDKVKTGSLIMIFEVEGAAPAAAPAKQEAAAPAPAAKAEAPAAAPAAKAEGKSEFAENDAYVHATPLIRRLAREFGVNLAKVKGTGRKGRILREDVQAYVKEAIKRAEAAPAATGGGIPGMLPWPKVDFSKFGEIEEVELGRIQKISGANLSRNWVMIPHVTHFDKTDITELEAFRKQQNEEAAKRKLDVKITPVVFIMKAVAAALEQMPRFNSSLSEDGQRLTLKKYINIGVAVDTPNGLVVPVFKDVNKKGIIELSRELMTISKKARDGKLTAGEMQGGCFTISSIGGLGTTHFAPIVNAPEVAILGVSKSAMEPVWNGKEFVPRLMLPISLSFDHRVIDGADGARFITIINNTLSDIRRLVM
# UniProt P69783: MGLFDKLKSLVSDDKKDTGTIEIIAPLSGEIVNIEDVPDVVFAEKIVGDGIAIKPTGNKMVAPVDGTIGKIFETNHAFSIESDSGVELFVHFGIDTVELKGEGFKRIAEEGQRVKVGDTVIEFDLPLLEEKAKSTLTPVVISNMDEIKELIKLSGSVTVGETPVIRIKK
# UniProt P0ABZ6, residues 21-428: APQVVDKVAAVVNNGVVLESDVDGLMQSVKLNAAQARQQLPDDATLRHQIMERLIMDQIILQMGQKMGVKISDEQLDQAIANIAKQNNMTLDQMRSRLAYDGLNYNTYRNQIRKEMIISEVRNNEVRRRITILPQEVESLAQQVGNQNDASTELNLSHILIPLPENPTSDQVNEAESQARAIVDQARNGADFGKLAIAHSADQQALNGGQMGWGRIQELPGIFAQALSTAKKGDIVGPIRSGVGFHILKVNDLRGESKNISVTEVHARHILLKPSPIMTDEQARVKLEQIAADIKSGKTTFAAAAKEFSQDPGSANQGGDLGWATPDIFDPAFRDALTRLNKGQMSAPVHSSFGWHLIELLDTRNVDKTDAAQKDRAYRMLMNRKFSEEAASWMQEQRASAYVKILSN
# UniProt P0A8M3: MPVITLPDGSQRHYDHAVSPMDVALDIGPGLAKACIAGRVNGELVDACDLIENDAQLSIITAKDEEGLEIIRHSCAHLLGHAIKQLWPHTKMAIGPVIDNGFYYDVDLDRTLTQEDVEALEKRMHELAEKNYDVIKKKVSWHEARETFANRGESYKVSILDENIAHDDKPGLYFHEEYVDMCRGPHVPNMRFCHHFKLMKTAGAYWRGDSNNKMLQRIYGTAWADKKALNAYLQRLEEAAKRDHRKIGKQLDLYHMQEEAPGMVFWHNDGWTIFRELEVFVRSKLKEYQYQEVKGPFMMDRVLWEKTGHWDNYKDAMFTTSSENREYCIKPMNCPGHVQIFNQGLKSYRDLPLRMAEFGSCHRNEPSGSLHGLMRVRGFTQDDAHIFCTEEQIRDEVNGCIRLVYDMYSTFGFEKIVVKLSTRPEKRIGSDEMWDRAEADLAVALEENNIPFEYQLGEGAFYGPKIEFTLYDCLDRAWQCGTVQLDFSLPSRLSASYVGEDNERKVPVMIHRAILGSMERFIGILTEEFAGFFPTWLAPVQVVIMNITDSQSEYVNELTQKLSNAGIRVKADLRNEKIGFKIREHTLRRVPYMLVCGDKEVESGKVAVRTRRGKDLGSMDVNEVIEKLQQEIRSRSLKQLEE
# UniProt P0A6M8: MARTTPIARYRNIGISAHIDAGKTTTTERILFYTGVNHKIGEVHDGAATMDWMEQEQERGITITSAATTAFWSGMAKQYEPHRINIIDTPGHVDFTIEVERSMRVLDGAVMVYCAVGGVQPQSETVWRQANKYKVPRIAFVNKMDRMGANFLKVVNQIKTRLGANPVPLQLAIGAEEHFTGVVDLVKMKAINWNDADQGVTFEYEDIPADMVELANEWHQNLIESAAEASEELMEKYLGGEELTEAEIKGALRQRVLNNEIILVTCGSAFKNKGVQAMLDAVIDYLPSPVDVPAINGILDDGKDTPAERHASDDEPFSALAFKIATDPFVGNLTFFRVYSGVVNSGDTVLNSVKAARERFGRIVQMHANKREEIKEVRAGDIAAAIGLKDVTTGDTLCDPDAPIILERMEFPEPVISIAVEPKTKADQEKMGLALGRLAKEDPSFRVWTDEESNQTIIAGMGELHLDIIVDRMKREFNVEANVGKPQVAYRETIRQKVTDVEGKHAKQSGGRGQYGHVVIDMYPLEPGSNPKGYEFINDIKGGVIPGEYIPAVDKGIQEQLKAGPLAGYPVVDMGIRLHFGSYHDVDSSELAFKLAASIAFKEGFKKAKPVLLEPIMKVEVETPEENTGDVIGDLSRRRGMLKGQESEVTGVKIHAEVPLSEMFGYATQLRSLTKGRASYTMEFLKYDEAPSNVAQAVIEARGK
# UniProt P0ABA0: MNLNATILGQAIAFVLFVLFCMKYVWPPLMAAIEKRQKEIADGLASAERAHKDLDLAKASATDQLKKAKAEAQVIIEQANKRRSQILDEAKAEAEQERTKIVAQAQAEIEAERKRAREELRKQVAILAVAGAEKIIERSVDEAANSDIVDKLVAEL
# UniProt P00959: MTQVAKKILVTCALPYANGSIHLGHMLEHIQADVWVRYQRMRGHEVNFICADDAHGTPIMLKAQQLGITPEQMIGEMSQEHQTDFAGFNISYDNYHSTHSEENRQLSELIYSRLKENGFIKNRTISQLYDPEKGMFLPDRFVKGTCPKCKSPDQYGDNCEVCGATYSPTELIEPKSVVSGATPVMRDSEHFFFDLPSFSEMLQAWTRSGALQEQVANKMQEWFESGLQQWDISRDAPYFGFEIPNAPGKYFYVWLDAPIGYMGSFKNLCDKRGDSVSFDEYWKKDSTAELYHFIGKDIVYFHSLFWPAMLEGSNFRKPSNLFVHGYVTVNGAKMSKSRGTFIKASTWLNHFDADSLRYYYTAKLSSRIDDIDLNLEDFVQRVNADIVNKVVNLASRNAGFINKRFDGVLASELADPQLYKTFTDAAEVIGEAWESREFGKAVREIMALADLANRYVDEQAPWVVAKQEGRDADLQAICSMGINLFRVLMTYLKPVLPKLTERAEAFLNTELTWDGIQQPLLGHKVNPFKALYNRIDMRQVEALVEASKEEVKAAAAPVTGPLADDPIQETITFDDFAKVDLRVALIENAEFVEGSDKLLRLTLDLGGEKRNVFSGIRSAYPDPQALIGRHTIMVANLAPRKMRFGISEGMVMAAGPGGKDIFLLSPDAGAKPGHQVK
# Where two headings read alike, the source gives them in different places. Results are given in words; binding and its absence hold for the method and conditions named. In cells and extracts the contact can be indirect. Some results given as binding are weak or reduced against the parent protein; the word gives no strength.
# T1: Pgk (E. coli (endogenous in K12 MG1655)) (UniProt P0A799)
# T1 sequence: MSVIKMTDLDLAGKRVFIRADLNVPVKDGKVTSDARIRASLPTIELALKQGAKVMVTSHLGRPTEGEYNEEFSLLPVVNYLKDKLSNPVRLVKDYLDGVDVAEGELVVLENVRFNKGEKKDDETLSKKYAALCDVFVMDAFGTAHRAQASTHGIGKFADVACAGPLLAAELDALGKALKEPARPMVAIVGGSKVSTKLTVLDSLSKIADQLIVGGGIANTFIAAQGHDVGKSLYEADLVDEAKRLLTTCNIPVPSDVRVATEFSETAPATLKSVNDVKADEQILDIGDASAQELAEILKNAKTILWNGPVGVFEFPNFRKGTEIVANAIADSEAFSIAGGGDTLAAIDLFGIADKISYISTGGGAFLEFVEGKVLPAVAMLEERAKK
# T2: ModE (E. coli (endogenous in K12 MG1655)) (UniProt P0A9G8)
# T2 sequence: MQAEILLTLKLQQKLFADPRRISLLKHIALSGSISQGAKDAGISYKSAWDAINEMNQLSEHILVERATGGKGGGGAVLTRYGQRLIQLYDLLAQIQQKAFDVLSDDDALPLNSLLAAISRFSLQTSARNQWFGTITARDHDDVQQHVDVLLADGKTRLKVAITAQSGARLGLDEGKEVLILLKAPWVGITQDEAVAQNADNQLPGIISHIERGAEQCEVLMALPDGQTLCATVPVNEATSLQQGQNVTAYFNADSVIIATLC
# Legend:
# Test in all cases: cross-linking
# [1] = target: E. coli chaperone, HtpG (Hsp90) (E. coli (endogenous in K12 MG1655)) (UniProt P0A6Z3)
# [2] = target: RplL (E. coli (endogenous in K12 MG1655)) (UniProt P0A7K2)
# [3] = target: AtpA (E. coli (endogenous in K12 MG1655)) (UniProt P0ABB0)
# [4] = target: HupA (E. coli (endogenous in K12 MG1655)) (UniProt P0ACF0)
# [5] = target: pyruvate dehydrogenase (AceF) (E. coli (endogenous in K12 MG1655)) (UniProt P06959)
# [6] = target: Crr (E. coli (endogenous in K12 MG1655)) (UniProt P69783)
# [7] = target: T1, Pgk (E. coli (endogenous in K12 MG1655))
# [8] = target: T2, ModE (E. coli (endogenous in K12 MG1655))
# [9] = target: TrpS (E. coli (endogenous in K12 MG1655)) (UniProt P00954)
# [10] = target: RplL (E. coli (endogenous in K12 MG1655)) (UniProt P0A7K2); remark: listed apart in the source
molecule,measurement,setting,value
"periplasmic chaperone, SurA (from UniProt P0ABZ6 21-428)",binding,[1],binds
aminoacyl-tRNA synthetase ThrS (from UniProt P0A8M3 1-642) (enzyme),binding,[2],binds
GTPase elongation factor EF-G (FusA) (from UniProt P0A6M8 1-704),binding,[2],binds
AtpF (from UniProt P0ABA0 1-156),binding,[3],binds
aminoacyl-tRNA synthetase MetG (from UniProt P00959 1-677) (enzyme),binding,[2],binds
NusA (from UniProt P0AFF6 1-495),binding,[4],binds
co-translational chaperone DnaK (Hsp70) (from UniProt P0A6Y8 1-638),binding,[2],binds
"phosphoglycerate dehydrogenase (SerA) (enzyme, UniProt P0A9T0 1-410) MAKVSLEKDKIKFLLVEGVHQKALESLRAAGYTNIEFHKGALDDEQLKESIRDAHFIGLRSRTHLTEDVINAAEKLVAIGCFCIGTNQVDLDAAAKRGIPVFNAPFSNTRSVAELVIGELLLLLRGVPEANAKAHRGVWNKLAAGSFEARGKKLGIIGYGHIGTQLGILAESLGMYVYFYDIENKLPLGNATQVQHLSDLLNMSDVVSLHVPENPSTKNMMGAKEISLMKPGSLLINASRGTVVDIPALCDALASKHLAGAAIDVFPTEPATNSDPFTSPLCEFDNVLLTPHIGGSTQEAQENIGLEVAGKLIKYSDNGSTLSAVNFPEVSLPLHGGRRLMHIHENRPGVLTALNKIFAEQGVNIAAQYLQTSAQMGYVVIDIEADEDVAEKALQAMKAIPGTIRARLLY",binding,[5],binds
"lipoate synthase (LipA) (enzyme, UniProt P60716 1-321) MSKPIVMERGVKYRDADKMALIPVKNVATEREALLRKPEWMKIKLPADSTRIQGIKAAMRKNGLHSVCEEASCPNLAECFNHGTATFMILGAICTRRCPFCDVAHGRPVAPDANEPVKLAQTIADMALRYVVITSVDRDDLRDGGAQHFADCITAIREKSPQIKIETLVPDFRGRMDRALDILTATPPDVFNHNLENVPRIYRQVRPGADYNWSLKLLERFKEAHPEIPTKSGLMVGLGETNEEIIEVMRDLRRHGVTMLTLGQYLQPSRHHLPVQRYVSPDEFDEMKAEALAMGFTHAACGPFVRSSYHADLQAKGMEVK",binding,[5],binds
"zinc-binding dehydrogenase, YdjJ (protein, UniProt P77280 1-347) MKNSKAILQVPGTMKIISAEIPVPKEDEVLIKVEYVGICGSDVHGFESGPFIPPKDPNQEIGLGHECAGTVVAVGSRVRKFKPGDRVNIEPGVPCGHCRYCLEGKYNICPDVDFMATQPNYRGALTHYLCHPESFTYKLPDNMDTMEGALVEPAAVGMHAAMLADVKPGKKIIILGAGCIGLMTLQACKCLGATEIAVVDVLEKRLAMAEQLGATVVINGAKEDTIARCQQFTEDMGADIVFETAGSAVTVKQAPYLVMRGGKIMIVGTVPGDSAINFLKINREVTIQTVFRYANRYPVTIEAISSGRFDVKSMVTHIYDYRDVQQAFEESVNNKRDIIKGVIKISD",binding,[5],binds
"KpLE2 phage-like protein, YjhV (protein, UniProt Q47719 1-137) MVGYHQTNQKTDTGKTLTRRPVLVDHNRLPEGSRGRLAVAVAGDHPAAVQVTMTLVNDTGFDPVFSGSIAESWRQQPCTPSYCCDWEAATMLRAFPLAKKGEGRARLPSLYASFGKLGETPTHEDIIDNNRSINWPV",binding,[5],binds
"carbon-nitrogen hydrolase family protein, YobB (protein, UniProt P76280 1-218) MSFWKVAAAQYEPRKTSLTEQVAHHLEFVRAAARQQCQLLVFPSLSLLGCDYSRRALPAPPDLSLLDPLCYAATTWRMTIIAGLPVEYNDRFIRGIAVFAPWRKTPGIYHQSHGACLGRRSRTITVVDEQPQGMDMDPTCSLFTTGQCLGEPDLLASARRLQFFSHQYSIAVLMANARGNSALWDEYGRLIVRADRGSLLLVGQRSSQGWQGDIIPLR",binding,[5],binds
"SelA (protein, UniProt P0A821 1-463) MTTETRSLYSQLPAIDRLLRDSSFLSLRDTYGHTRVVELLRQMLDEAREVIRGSQTLPAWCENWAQEVDARLTKEAQSALRPVINLTGTVLHTNLGRALQAEAAVEAVAQAMRSPVTLEYDLDDAGRGHRDRALAQLLCRITGAEDACIVNNNAAAVLLMLAATASGKEVVVSRGELVEIGGAFRIPDVMRQAGCTLHEVGTTNRTHANDYRQAVNENTALLMKVHTSNYSIQGFTKAIDEAELVALGKELDVPVVTDLGSGSLVDLSQYGLPKEPMPQELIAAGVSLVSFSGDKLLGGPQAGIIVGKKEMIARLQSHPLKRALRADKMTLAALEATLRLYLHPEALSEKLPTLRLLTRSAEVIQIQAQRLQAPLAAHYGAEFAVQVMPCLSQIGSGSLPVDRLPSAALTFTPHDGRGSHLESLAARWRELPVPVIGRIYDGRLWLDLRCLEDEQRFLEMLLK",binding,[6],binds
"LafU (protein, UniProt Q47154 1-211) MAVPEETEKKARDVNEKTALLKKKSATELGELATSINTIARDAHMEANLEMEIVPQGLRVLIKDDQNRNMFERGSAKIMPFFKTLLVELAPVFDSLDNKIIITGHTDAMAYKNNIYNNWNLSGDRALSARRVLEEAGMPEDKVMQVSAMADQMLLDSKNPQSAGNRRIEIMVLTKSASDTLYQYFGQHGDKVVQPLVQKLDKQQVLSQRTR",binding,[7],binds
"SsuB (protein, UniProt P0AAI1 1-255) MNTARLNQGTPLLLNAVSKHYAENIVLNQLDLHIPAGQFVAVVGRSGGGKSTLLRLLAGLETPTAGDVLAGTTPLAEIQEDTRMMFQDARLLPWKSVIDNVGLGLKGQWRDAARRALAAVGLENRAGEWPAALSGGQKQRVALARALIHRPGLLLLDEPLGALDALTRLEMQDLIVSLWQEHGFTVLLVTHDVSEAVAMADRVLLIEEGKIGLDLTVDIPRPRRLGSVRLAELEAEVLQRVMQRGESETRLRKQG",binding,[8],binds
"Pgk (protein, UniProt P0A799 1-387) MSVIKMTDLDLAGKRVFIRADLNVPVKDGKVTSDARIRASLPTIELALKQGAKVMVTSHLGRPTEGEYNEEFSLLPVVNYLKDKLSNPVRLVKDYLDGVDVAEGELVVLENVRFNKGEKKDDETLSKKYAALCDVFVMDAFGTAHRAQASTHGIGKFADVACAGPLLAAELDALGKALKEPARPMVAIVGGSKVSTKLTVLDSLSKIADQLIVGGGIANTFIAAQGHDVGKSLYEADLVDEAKRLLTTCNIPVPSDVRVATEFSETAPATLKSVNDVKADEQILDIGDASAQELAEILKNAKTILWNGPVGVFEFPNFRKGTEIVANAIADSEAFSIAGGGDTLAAIDLFGIADKISYISTGGGAFLEFVEGKVLPAVAMLEERAKK",binding,[9],binds
"methyltransferase RlmI (enzyme, UniProt P75876 1-396) MSVRLVLAKGREKSLLRRHPWVFSGAVARMEGKASLGETIDIVDHQGKWLARGAYSPASQIRARVWTFDPSESIDIAFFSRRLQQAQKWRDWLAQKDGLDSYRLIAGESDGLPGITIDRFGNFLVLQLLSAGAEYQRAALISALQTLYPECSIYDRSDVAVRKKEGMELTQGPVTGELPPALLPIEEHGMKLLVDIQHGHKTGYYLDQRDSRLATRRYVENKRVLNCFSYTGGFAVSALMGGCSQVVSVDTSQEALDIARQNVELNKLDLSKAEFVRDDVFKLLRTYRDRGEKFDVIVMDPPKFVENKSQLMGACRGYKDINMLAIQLLNEGGILLTFSCSGLMTSDLFQKIIADAAIDAGRDVQFIEQFRQAADHPVIATYPEGLYLKGFACRVM",binding,[10],binds
"methyltransferase RsmG (enzyme, UniProt P0A6U5 1-207) MLNKLSLLLKDAGISLTDHQKNQLIAYVNMLHKWNKAYNLTSVRDPNEMLVRHILDSIVVAPYLQGERFIDVGTGPGLPGIPLSIVRPEAHFTLLDSLGKRVRFLRQVQHELKLENIEPVQSRVEEFPSEPPFDGVISRAFASLNDMVSWCHHLPGEQGRFYALKGQMPEDEIALLPEEYQVESVVKLQVPALDGERHLVVIKANKI",binding,[10],binds
"YgeH (protein, UniProt P76639 1-458) MDLENKFSYHFLEGLTLTEDGILTQGNEQVYIPQKELGVLIVLLESAGHVVLKDMIIESVWKNIIVSDESLTRCIYSLRCIFEKIGYDRCIETIYRKGYRFSGQVFKTKINEDNTSDYSIAIFPFTTSLNTLDPLILNQELVQIISNKKIDGLYTYPMAATNFCNDHISQNSFLSRFKPDYFVTGRINQNNAVNTLYIELIDAKNLFLIASNHLPVDELHNTSQFIIDNILQTVHKPERSVRLAKQDQGYKNHYLSDEMLAGKKELYDFTPESIYRAMTIFDRLQNKSDIQTLKTECYCLLAECHMSLALHGKSELELAAQKALELLDYVSDITTVDGKILAIMGLITGLSGQAKVSHILFEQAKIHSTDIASLYYYRALVHFHNEKIEEARICIDKSLQLEPRRRKAVVIKECVDMYVPNPLKNNIKLYYKETESESHRVIIDNILKLKQLTRICMR",binding,[10],binds
